{
  "source": "the supplement of paper PMC8728848",
  "experiment_in_all_cases": "glycan array binding signal (z-score within array); higher = stronger binding",
  "conditions_in_all_cases": "glycan notation: IUPAC condensed, linker removed",
  "key": {"[1]": {"biological_target": "Neu5Ac(a2-3)Gal(b1-4)GlcNAc(b1-3)[Neu5Ac(a2-3)Gal(b1-4)GlcNAc(b1-6)]GalNAc", "procedure,_shortened": "(§1)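 Arrays were curated from the Consortium for Functional Glycomics database, 3228 in total, and kept only where the protein sequence was available. Binding is expressed as a within-array Z-score. This score was averaged across arrays of the same protein sequence at different concentrations or buffers and across linkers, and negative values can be read as non-binding.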"}, "[2]": {"biological_target": "Neu5Ac(a2-3)Gal(b1-4)GlcNAc(b1-6)GalNAc", "procedure,_shortened": "as §1"}, "[3]": {"biological_target": "Neu5Ac(a2-3)Gal(b1-4)GlcNAc(b1-6)[Gal(b1-3)]GalNAc", "procedure,_shortened": "as §1"}, "[4]": {"biological_target": "Neu5Ac(a2-3)Gal(b1-4)GlcNAc(b1-6)[Neu5Ac(a2-3)Gal(b1-3)]GalNAc", "procedure,_shortened": "as §1"}, "[5]": {"biological_target": "Neu5Ac(a2-3)Gal(b1-4)GlcNAc6S", "procedure,_shortened": "as §1"}, "[6]": {"biological_target": "Neu5Ac(a2-3)Gal(b1-4)[Fuc(a1-3)]GlcNAc", "procedure,_shortened": "as §1"}, "[7]": {"biological_target": "Neu5Ac(a2-3)Gal(b1-4)[Fuc(a1-3)]GlcNAc(b1-2)Man", "procedure,_shortened": "as §1"}, "[8]": {"biological_target": "Neu5Ac(a2-3)Gal(b1-4)[Fuc(a1-3)]GlcNAc(b1-3)Gal", "procedure,_shortened": "as §1"}, "[9]": {"biological_target": "Neu5Ac(a2-3)Gal(b1-4)[Fuc(a1-3)]GlcNAc(b1-3)Gal(b1-4)GlcNAc", "procedure,_shortened": "as §1"}, "[10]": {"biological_target": "Neu5Ac(a2-3)Gal(b1-4)[Fuc(a1-3)]GlcNAc(b1-3)Gal(b1-4)[Fuc(a1-3)]GlcNAc(b1-3)Gal(b1-4)[Fuc(a1-3)]GlcNAc", "procedure,_shortened": "as §1"}, "[11]": {"biological_target": "Neu5Ac(a2-3)Gal(b1-4)[Fuc(a1-3)]GlcNAc(b1-3)GalNAc", "procedure,_shortened": "as §1"}, "[12]": {"biological_target": "Neu5Ac(a2-3)Gal(b1-4)[Fuc(a1-3)]GlcNAc(b1-6)[Gal(b1-3)]GalNAc", "procedure,_shortened": "as §1"}, "[13]": {"biological_target": "Neu5Ac(a2-3)Gal(b1-4)[Fuc(a1-3)]GlcNAc(b1-6)[Neu5Ac(a2-3)Gal(b1-3)]GalNAc", "procedure,_shortened": "as §1"}, "[14]": {"biological_target": "Neu5Ac(a2-3)Gal(b1-4)[Fuc(a1-3)]GlcNAc6S", "procedure,_shortened": "as §1"}, "[15]": {"biological_target": "Neu5Ac(a2-3)Gal6S(b1-4)GlcNAc", "procedure,_shortened": "as §1"}, "[16]": {"biological_target": "Neu5Ac(a2-3)Gal6S(b1-4)[Fuc(a1-3)]GlcNAc", "procedure,_shortened": "as §1"}, "Neu5Ac(a2-3)GalNAc": {"biological_target": "Neu5Ac(a2-3)GalNAc", "procedure,_shortened": "as §1"}, "[17]": {"biological_target": "Neu5Ac(a2-3)GalNAc(b1-4)GlcNAc", "procedure,_shortened": "as §1"}, "[18]": {"biological_target": "Neu5Ac(a2-3)[GalNAc(b1-4)]Gal(b1-4)Glc", "procedure,_shortened": "as §1"}, "[19]": {"biological_target": "Neu5Ac(a2-3)[GalNAc(b1-4)]Gal(b1-4)GlcNAc", "procedure,_shortened": "as §1"}, "[20]": {"biological_target": "Neu5Ac(a2-3)[GalNAc(b1-4)]Gal(b1-4)GlcNAc(b1-3)GalNAc", "procedure,_shortened": "as §1"}, "[21]": {"biological_target": "Neu5Ac(a2-3)[Neu5Ac(a2-6)]GalNAc", "procedure,_shortened": "as §1"}, "Neu5Ac(a2-6)Gal": {"biological_target": "Neu5Ac(a2-6)Gal", "procedure,_shortened": "as §1"}},
  "note": "Some of the results follow.",
  "data": [
    {"binder": "SHCBP1-GST (Homo sapiens), Q8NEM2 (protein) MADGSLTGGGLEAAAMAPERMGWAVEQELASLEKGLFQDEDSCSDCSYRDKPGSSLQSFMPEGKTFFPEIFQTNQLLFYERFRAYQDYILADCKASEVQEFTAEFLEKVLEPSGWRAVWHTNVFKVLVEITDVDFAALKAVVRLAEPYLCDSQVSTFTMECMKELLDLKEHRLPLQELWVVFDDSGVFDQTALAIEHVRFFYQNIWRSWDEEEEDEYDYFVRCVEPRLRLHYDILEDRVPSGLIVDYHNLLSQCEESYRKFLNLRSSLSNCNSDSEQENISMVEGLKLYSEMEQLKQKLKLIENPLLRYVFGYQKNSNIQAKGVRSSGQKITHVVSSTMMAGLLRSLLTDRLCQEPGEEEREIQFHSDPLSAINACFEGDTVIVCPGHYVVHGTFSIADSIELEGYGLPDDIVIEKRGKGDTFVDCTGADIKISGIKFVQHDAVEGILIVHRGKTTLENCVLQCETTGVTVRTSAEFLMKNSDLYGAKGAGIEIYPGSQCTLSDNGIHHCKEGILIKDFLDEHYDIPKISMVNNIIHNNEGYGVVLVKPTIFSDLQENAEDGTEENKALKIQTSGEPDVAERVDLEELIECATGKMELCARTDPSEQVEGNCEIVNELIAASTQKGQIKKKRLSELGITQADDNLMSQEMFVGIVGNQFKWNGKGSFGTFLF", "values": [
      {"measurement": "glycan array binding signal (z-score)", "setting": "[1]", "value": 0.316},
      {"measurement": "glycan array binding signal (z-score)", "setting": "[2]", "value": 1.06},
      {"measurement": "glycan array binding signal (z-score)", "setting": "[3]", "value": -0.811},
      {"measurement": "glycan array binding signal (z-score)", "setting": "[4]", "value": -0.665},
      {"measurement": "glycan array binding signal (z-score)", "setting": "[5]", "value": -0.159},
      {"measurement": "glycan array binding signal (z-score)", "setting": "[6]", "value": -0.388},
      {"measurement": "glycan array binding signal (z-score)", "setting": "[7]", "value": -0.022},
      {"measurement": "glycan array binding signal (z-score)", "setting": "[8]", "value": -0.924},
      {"measurement": "glycan array binding signal (z-score)", "setting": "[9]", "value": -0.055},
      {"measurement": "glycan array binding signal (z-score)", "setting": "[10]", "value": -0.354},
      {"measurement": "glycan array binding signal (z-score)", "setting": "[11]", "value": 0.726},
      {"measurement": "glycan array binding signal (z-score)", "setting": "[12]", "value": -0.35},
      {"measurement": "glycan array binding signal (z-score)", "setting": "[13]", "value": -0.607},
      {"measurement": "glycan array binding signal (z-score)", "setting": "[14]", "value": -0.641},
      {"measurement": "glycan array binding signal (z-score)", "setting": "[15]", "value": 0.329},
      {"measurement": "glycan array binding signal (z-score)", "setting": "[16]", "value": -0.518},
      {"measurement": "glycan array binding signal (z-score)", "setting": "Neu5Ac(a2-3)GalNAc", "value": -0.122},
      {"measurement": "glycan array binding signal (z-score)", "setting": "[17]", "value": -0.159},
      {"measurement": "glycan array binding signal (z-score)", "setting": "[18]", "value": -0.047},
      {"measurement": "glycan array binding signal (z-score)", "setting": "[19]", "value": 0.08},
      {"measurement": "glycan array binding signal (z-score)", "setting": "[20]", "value": 0.194},
      {"measurement": "glycan array binding signal (z-score)", "setting": "[21]", "value": 0.17},
      {"measurement": "glycan array binding signal (z-score)", "setting": "Neu5Ac(a2-6)Gal", "value": -0.258}
    ]}
  ]
}
